No constants are given. Whether binding was seen depends on the method and setting. Some results given as binding are weak or reduced against the parent protein; the word gives no strength.
What was measured:
[1] = biological target: full-length KAT6A (KAT6A^FL) (human) (UniProt Q92794); assay: co-purification (anti-Flag resin, then gel filtration); proteins co-expressed in Sf21 cells by co-infection with baculoviruses; Flag on KAT6A^FL or MYST; 4 °C; lysis in 50 mM Tris pH 8.0, 250 mM NaCl, 0.25 mM TCEP; gel filtration in 25 mM HEPES pH 7.5, 250 mM NaCl, 0.25 mM TCEP
[2] = biological target: Flag-MYST (KAT6A MYST domain with Flag tag) (human) (UniProt Q92794); assay: as above

Chains of the proteins cited; added tags and fusions are not shown. Lines headed by an entry give the natural chain unless they say otherwise; changes in a name come on top. A line that says so, or that is headed by a name, gives the form on record, which may keep a tag or linker. Residues count along the entry.
UniProt Q92794: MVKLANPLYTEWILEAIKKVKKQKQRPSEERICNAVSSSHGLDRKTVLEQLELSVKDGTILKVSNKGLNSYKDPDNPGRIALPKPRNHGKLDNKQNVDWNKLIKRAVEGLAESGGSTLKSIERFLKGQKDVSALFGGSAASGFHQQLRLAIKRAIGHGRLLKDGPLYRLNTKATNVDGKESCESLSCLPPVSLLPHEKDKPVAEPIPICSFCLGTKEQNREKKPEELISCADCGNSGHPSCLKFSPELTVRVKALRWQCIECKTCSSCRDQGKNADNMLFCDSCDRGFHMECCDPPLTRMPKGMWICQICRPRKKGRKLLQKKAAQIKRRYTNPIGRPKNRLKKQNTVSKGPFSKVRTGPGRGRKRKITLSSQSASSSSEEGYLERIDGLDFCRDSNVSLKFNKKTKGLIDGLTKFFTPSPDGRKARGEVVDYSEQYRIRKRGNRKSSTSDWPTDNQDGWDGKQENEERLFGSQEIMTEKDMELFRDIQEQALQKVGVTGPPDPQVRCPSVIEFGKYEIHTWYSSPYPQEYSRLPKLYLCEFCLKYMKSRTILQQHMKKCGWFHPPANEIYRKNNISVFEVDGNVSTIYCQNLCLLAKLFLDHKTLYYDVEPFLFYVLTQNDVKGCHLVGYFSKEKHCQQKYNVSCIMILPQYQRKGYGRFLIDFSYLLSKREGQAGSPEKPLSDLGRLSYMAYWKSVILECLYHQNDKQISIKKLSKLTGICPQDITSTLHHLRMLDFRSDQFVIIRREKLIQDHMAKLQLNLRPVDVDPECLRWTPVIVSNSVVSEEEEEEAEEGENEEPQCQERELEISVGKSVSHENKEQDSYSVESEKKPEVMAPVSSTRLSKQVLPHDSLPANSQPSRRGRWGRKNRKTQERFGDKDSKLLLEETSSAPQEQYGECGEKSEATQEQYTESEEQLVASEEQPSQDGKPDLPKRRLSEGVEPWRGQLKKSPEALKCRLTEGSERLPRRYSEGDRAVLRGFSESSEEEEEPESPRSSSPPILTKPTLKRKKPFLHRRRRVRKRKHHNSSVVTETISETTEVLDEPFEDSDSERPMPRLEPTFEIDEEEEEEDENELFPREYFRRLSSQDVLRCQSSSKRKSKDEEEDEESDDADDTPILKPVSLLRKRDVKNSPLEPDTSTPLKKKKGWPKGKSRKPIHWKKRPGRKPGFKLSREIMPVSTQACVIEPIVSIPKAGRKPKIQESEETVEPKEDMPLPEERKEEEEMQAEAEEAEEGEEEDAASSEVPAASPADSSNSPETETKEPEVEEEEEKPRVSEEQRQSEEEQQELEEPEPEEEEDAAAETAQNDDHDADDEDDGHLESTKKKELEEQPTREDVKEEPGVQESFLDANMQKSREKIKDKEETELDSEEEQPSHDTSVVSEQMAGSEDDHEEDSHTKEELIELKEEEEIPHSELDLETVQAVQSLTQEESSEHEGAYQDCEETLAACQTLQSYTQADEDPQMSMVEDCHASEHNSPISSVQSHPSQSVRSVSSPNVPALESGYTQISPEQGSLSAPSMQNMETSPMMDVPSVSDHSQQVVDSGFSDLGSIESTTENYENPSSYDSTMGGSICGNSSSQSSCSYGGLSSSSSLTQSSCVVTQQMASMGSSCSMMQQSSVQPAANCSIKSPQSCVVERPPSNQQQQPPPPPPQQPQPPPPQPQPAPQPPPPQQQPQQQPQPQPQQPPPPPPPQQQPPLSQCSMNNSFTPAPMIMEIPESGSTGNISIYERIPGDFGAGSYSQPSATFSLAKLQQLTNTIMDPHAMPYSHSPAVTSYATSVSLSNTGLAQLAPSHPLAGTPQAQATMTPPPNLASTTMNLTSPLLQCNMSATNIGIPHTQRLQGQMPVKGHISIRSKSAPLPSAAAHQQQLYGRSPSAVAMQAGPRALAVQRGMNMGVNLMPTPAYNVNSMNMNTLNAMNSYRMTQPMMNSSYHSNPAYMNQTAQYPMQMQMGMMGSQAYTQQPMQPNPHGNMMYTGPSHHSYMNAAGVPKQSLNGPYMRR
Flag-MYST (KAT6A MYST domain with Flag tag): residues 501-784 of Q92794

binding [1] | binding [2] | Substance
binds | binds | BRPF1 (bromodomain and PHD finger-containing protein 1) (from UniProt P55201-1 1-1214)
binds | – | ING5 (inhibitor of growth 5) (from UniProt Q8WYH8-1 1-240)

From paper PMC11946513, “Modulation of the substrate preference of a MYST acetyltransferase by a scaffold protein” (The Journal of Biological Chemistry, 2025)
